Assay results as given in PMC12312434.
No constants are given. Whether binding was seen depends on the method and setting. For some assays here: In cells and extracts the contact can be indirect. Some results given as binding are weak or reduced against the parent protein; the word gives no strength. Tags and fused reporters may be left off the sequences shown.

What was measured:
[1] = target: COR47 (COLD-REGULATED 47), yeast two-hybrid fusion (Arabidopsis thaliana) (UniProt P31168); experiment: two-hybrid; pairwise AD and BD co-transformed into yeast strain Y2H gold; growth on SD -Leu/-Trp/-His/-Ade at 30 °C for 48 h
[2] = target: COR47 (COLD-REGULATED 47), BiFC fusion (Arabidopsis thaliana) (UniProt P31168); experiment: split reporter; BiFC; transient expression in N. benthamiana leaves by agroinfiltration (A. tumefaciens GV3101)

| Binder | binding [1] | binding [2] |
| --- | --- | --- |
| COR47 (COLD-REGULATED 47), yeast two-hybrid fusion (protein, UniProt P31168 1-265) MAEEYKNNVPEHETPTVATEESPATTTEVTDRGLFDFLGKKEEEVKPQETTTLESEFDHKAQISEPELAAEHEEVKENKITLLEELQEKTEEDEENKPSVIEKLHRSNSSSSSSSDEEGEEKKEKKKKIVEGEEDKKGLVEKIKEKLPGHHDKTAEDDVPVSTTIPVPVSESVVEHDHPEEEKKGLVEKIKEKLPGHHDEKAEDSPAVTSTPLVVTEHPVEPTTELPVEHPEEKKGILEKIKEKLPGYHAKTTEEEVKKEKESDD | binds |  |
| COR47 (COLD-REGULATED 47), BiFC fusion (protein, UniProt P31168 1-265) MAEEYKNNVPEHETPTVATEESPATTTEVTDRGLFDFLGKKEEEVKPQETTTLESEFDHKAQISEPELAAEHEEVKENKITLLEELQEKTEEDEENKPSVIEKLHRSNSSSSSSSDEEGEEKKEKKKKIVEGEEDKKGLVEKIKEKLPGHHDKTAEDDVPVSTTIPVPVSESVVEHDHPEEEKKGLVEKIKEKLPGHHDEKAEDSPAVTSTPLVVTEHPVEPTTELPVEHPEEKKGILEKIKEKLPGYHAKTTEEEVKKEKESDD |  | binds |
